Experimental data from article PMC8233366.
These are yes or no findings as the source states them, for the method shown. In cells and extracts the contact can be indirect.

The chains behind the UniProt entries cited, without tags or fusion partners. Where a name states a change or a piece, a line headed by the entry shows the natural chain unless it says otherwise.
UniProt Q92540: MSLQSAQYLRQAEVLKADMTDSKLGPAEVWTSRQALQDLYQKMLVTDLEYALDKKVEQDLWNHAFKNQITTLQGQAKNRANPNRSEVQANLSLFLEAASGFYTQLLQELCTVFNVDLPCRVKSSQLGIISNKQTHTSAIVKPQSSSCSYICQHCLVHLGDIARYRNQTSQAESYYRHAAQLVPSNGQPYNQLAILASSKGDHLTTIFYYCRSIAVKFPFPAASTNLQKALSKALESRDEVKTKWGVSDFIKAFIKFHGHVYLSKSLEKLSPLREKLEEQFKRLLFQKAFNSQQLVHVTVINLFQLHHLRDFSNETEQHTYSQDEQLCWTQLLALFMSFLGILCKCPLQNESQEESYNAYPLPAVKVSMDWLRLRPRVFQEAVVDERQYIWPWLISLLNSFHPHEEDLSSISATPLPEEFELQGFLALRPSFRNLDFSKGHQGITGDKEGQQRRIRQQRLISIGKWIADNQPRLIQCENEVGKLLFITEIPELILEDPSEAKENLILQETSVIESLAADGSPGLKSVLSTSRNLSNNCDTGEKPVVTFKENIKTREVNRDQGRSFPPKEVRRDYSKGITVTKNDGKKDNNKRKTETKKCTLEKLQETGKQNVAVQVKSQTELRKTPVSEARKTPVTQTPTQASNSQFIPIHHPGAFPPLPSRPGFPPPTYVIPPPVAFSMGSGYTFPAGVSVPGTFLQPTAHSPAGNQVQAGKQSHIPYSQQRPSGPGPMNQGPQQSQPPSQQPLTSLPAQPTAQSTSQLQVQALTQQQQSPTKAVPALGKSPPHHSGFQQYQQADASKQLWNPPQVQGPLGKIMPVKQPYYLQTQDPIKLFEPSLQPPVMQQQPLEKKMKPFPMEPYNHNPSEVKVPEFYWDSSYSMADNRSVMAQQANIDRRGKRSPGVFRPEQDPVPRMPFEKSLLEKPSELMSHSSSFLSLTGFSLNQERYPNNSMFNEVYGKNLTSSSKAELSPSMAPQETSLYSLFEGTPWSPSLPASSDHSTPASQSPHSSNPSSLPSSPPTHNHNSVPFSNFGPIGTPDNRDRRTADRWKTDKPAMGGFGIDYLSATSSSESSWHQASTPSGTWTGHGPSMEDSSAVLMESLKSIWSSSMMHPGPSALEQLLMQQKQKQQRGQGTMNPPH

Target: FLAG-tagged SMG7 14-3-3^mut (human) (UniProt Q92540)
Experiment: co-IP; FLAG-tagged SMG7 constructs expressed in SMG7 KO cells; lysis in buffer E (20 mM HEPES-KOH pH 7.9, 100 mM KCl, 10% glycerol, 1 mM DTT, 1 µg/ml RNase A); Anti-FLAG M2 magnetic beads, 2 h at 4 °C; immunoblot (Fig. 2c, Extended Data Fig. 3f)

B1: phosphorylated UPF1 (endogenous) (protein, UniProt Q92900 1-1129)
chain: MSVEAYGPSSQTLTFLDTEEAELLGADTQGSEFEFTDFTLPSQTQTPPGGPGGPGGGGAGGPGGAGAGAAAGQLDAQVGPEGILQNGAVDDSVAKTSQLLAELNFEEDEEDTYYTKDLPIHACSYCGIHDPACVVYCNTSKKWFCNGRGNTSGSHIVNHLVRAKCKEVTLHKDGPLGETVLECYNCGCRNVFLLGFIPAKADSVVVLLCRQPCASQSSLKDINWDSSQWQPLIQDRCFLSWLVKIPSEQEQLRARQITAQQINKLEELWKENPSATLEDLEKPGVDEEPQHVLLRYEDAYQYQNIFGPLVKLEADYDKKLKESQTQDNITVRWDLGLNKKRIAYFTLPKTDSGNEDLVIIWLRDMRLMQGDEICLRYKGDLAPLWKGIGHVIKVPDNYGDEIAIELRSSVGAPVEVTHNFQVDFVWKSTSFDRMQSALKTFAVDETSVSGYIYHKLLGHEVEDVIIKCQLPKRFTAQGLPDLNHSQVYAVKTVLQRPLSLIQGPPGTGKTVTSATIVYHLARQGNGPVLVCAPSNIAVDQLTEKIHQTGLKVVRLCAKSREAIDSPVSFLALHNQIRNMDSMPELQKLQQLKDETGELSSADEKRYRALKRTAERELLMNADVICCTCVGAGDPRLAKMQFRSILIDESTQATEPECMVPVVLGAKQLILVGDHCQLGPVVMCKKAAKAGLSQSLFERLVVLGIRPIRLQVQYRMHPALSAFPSNIFYEGSLQNGVTAADRVKKGFDFQWPQPDKPMFFYVTQGQEEIASSGTSYLNRTEAANVEKITTKLLKAGAKPDQIGIITPYEGQRSYLVQYMQFSGSLHTKLYQEVEIASVDAFQGREKDFIILSCVRANEHQGIGFLNDPRRLNVALTRARYGVIIVGNPKALSKQPLWNHLLNYYKEQKVLVEGPLNNLRESLMQFSKPRKLVNTINPGARFMTTAMYDAREAIIPGSVYDRSSQGRPSSMYFQTHDQIGMISAGPSHVAAMNIPIPFNLVMPPMPPPGYFGQANGPAAGRGTPKGKTGRGGRQKNRFGLPGPSQTNLPNSQASQDVASQPFSQGALTQGYISMSQPSQMSQPGLSQPELSQDSYLGDEFKSQIDVALSQDSTYQGERAYQHGGVTGLSQY
modifications: phosphorylated (p-UPF1); residues not stated for the co-IP blots
binding: no binding
